In patent US20260097022A1, “COMPOUNDS AND USES THEREOF” (Integrated Biosciences, Inc., priority 2023, published 2026):
pIC50: −log10 of the molar value. Some entries share one result that the patent states for a list of compounds. For some of these results: At least one compound was matched to its structure with a doubt left.

The chains behind the UniProt entries cited, without tags or fusion partners.
UniProt Q07820, whole entry, species assumed: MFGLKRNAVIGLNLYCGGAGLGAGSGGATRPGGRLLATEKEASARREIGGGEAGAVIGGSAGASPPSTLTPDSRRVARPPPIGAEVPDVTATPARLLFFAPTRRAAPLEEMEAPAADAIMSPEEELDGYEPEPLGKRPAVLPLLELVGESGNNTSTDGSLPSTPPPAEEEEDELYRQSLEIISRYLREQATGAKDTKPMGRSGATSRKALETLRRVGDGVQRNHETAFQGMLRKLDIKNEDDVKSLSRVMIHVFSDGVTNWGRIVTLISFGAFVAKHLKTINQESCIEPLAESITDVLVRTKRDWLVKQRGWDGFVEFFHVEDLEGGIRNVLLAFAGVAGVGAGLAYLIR

Key:
Bcl-w = target: T1, Bcl-w (Homo sapiens, UniProt Q92843); assay: Bcl-w TR-FRET; assay type: binding
T1 sequence (Q92843 1-193): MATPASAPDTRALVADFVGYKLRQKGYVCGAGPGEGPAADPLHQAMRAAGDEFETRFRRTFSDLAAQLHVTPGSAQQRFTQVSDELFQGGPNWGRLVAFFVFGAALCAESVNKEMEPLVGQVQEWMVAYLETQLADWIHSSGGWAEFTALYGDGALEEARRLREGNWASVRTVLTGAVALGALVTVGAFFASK

Mcl-1 = Mcl-1 (Homo sapiens, UniProt Q07820); assay: Mcl-1 TR-FRET; assay type: binding
Bcl2-Al = target: T2, Bcl2-Al (Homo sapiens, UniProt Q16548); assay: Bcl2-Al TR-FRET; assay type: binding
T2 sequence (Q16548 1-175): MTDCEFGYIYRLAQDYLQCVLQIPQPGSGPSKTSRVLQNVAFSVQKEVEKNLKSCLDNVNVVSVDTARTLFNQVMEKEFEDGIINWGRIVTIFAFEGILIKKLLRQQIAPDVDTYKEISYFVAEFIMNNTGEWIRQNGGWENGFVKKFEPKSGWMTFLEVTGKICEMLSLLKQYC

[1] = system: etoposide-treated IMR-90 cells; assay: Etoposide-induced senescence model, resazurin cell viability (screen and dose-response); assay type: cell-based, human; settings: ratio of IC50 values for vehicle- and etoposide-treated IMR-90 cells; 3 days treatment
Description: Cell culture. Human lung fibroblast (IMR-90) cells were obtained from ATCC (CCL-186) and passaged less than 10 times (less than 30 population doublings) for all experiments described in this example, with the exception of high-passage cells used in the model of replicative senescence (see the section on Replicative senescence below). Cells were cultured in growth media comprising Eagle's Minimum Essential Medium (EMEM: ATCC 30-2003) supplemented with 10% fetal bovine serum (FBS: Thermo Fisher 16140071) and 1% penicillin-streptomycin (Thermo Fisher 15070063). Cells were incubated in a humidity-controlled incubator at 37° C., with 5% CO2. Cells were detached using trypsin-EDTA (0.05%; Gibco 25300120). […]
Chemical screening. […] After an additional 1 day of incubation, the fluorescence excitation/emission at 550/590 nm was read using a SpectraMaxR M3 plate reader and manufacturer software (SoftMax Pro R 6). […]
Three-fold serial dilutions of compound were prepared in DMSO, then added to cell plates (final concentration of DMSO. 1%). Cell viability was then assayed as detailed above, and resazurin fluorescence values were linearly interpolated with respect to values from empty and positive control (non-treatment) wells. […]
Calculation of cellular viability values in dose-response curves. […] For each sample, the fluorescence intensity value was normalized by the mean of two untreated control values. […]

Structure (SMILES)	pIC50 (Bcl-w)	pIC50 (Mcl-1)	pIC50 (Bcl2-Al)	therapeutic index (TI) [1]
O=C(Nc1ccc(S(=O)(=O)Nc2ncccn2)cc1)c1ccc(-c2ccccc2)cc1 [BRD-K20733377]	≤ 4.00	≤ 4.00	≤ 4.00	–
CCOc1ccc(NC(=O)CSc2nc3ccc(NC(=O)c4cccc(C)c4)cc3s2)cc1 [compound 2]	–	–	–	> 5
